Our source for the binding values is paper PMC3425481.

By UniProt entry, the sequences of proteins in these tests, tags left out.
UniProt P84022: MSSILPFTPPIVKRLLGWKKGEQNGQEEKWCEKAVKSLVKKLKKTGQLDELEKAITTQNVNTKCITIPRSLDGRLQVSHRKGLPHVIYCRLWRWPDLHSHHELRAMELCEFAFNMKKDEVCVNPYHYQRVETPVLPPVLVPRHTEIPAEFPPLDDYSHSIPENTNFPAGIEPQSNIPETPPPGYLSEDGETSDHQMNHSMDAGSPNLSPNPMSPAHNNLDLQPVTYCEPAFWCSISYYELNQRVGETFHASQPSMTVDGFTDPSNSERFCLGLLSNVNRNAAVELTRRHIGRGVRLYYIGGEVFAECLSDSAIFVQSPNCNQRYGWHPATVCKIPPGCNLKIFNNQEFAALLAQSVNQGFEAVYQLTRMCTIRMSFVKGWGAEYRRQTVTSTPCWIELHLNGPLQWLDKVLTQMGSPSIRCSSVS

No constants are given. Whether binding was seen depends on the method and setting. In cells and extracts the contact can be indirect. Some entries that bind do so weakly or less than the wild type.

The test deals with Smad3 phosphorylated at the C-terminus (pSmad3C) (human (endogenous in ES-2)) (UniProt P84022). The test can be described thus: co-IP; immunoprecipitation with α-pSmad3C (overnight, 4°C) and protein A-sepharose from lysates of 10^8 ES-2 cells treated with TGF-β1 (1 h) or 2ME2 (16 h); 420 mM NaCl, 50 mM Hepes pH 7.8, 5 mM EDTA, 1% NP-40, 3% DTT; blots with α-Ski, α-Smurf2, α-tSmad2/3; control: sepharose beads alone.

B1: Ski (protein, UniProt P12755 1-728)
chain: MEAAAGGRGCFQPHPGLQKTLEQFHLSSMSSLGGPAAFSARWAQEAYKKESAKEAGAAAVPAPVPAATEPPPVLHLPAIQPPPPVLPGPFFMPSDRSTERCETVLEGETISCFVVGGEKRLCLPQILNSVLRDFSLQQINAVCDELHIYCSRCTADQLEILKVMGILPFSAPSCGLITKTDAERLCNALLYGGAYPPPCKKELAASLALGLELSERSVRVYHECFGKCKGLLVPELYSSPSAACIQCLDCRLMYPPHKFVVHSHKALENRTCHWGFDSANWRAYILLSQDYTGKEEQARLGRCLDDVKEKFDYGNKYKRRVPRVSSEPPASIRPKTDDTSSQSPAPSEKDKPSSWLRTLAGSSNKSLGCVHPRQRLSAFRPWSPAVSASEKELSPHLPALIRDSFYSYKSFETAVAPNVALAPPAQQKVVSSPPCAAAVSRAPEPLATCTQPRKRKLTVDTPGAPETLAPVAAPEEDKDSEAEVEVESREEFTSSLSSLSSPSFTSSSSAKDLGSPGARALPSAVPDAAAPADAPSGLEAELEHLRQALEGGLDTKEAKEKFLHEVVKMRVKQEEKLSAALQAKRSLHQELEFLRVAKKEKLREATEAKRNLRKEIERLRAENEKKMKEANESRLRLKRELEQARQARVCDKGCEAGRLRAKYSAQIEDLQVKLQHAEADREQLRADLLREREAREHLEKVVKELQEQLWPRARPEAAGSEGAAELEP
As for B1, the binding entry was “binds”.
